Data from the supplement of paper PMC7666118.
This is one part of the list.

The chains behind the UniProt entries cited, without tags or fusion partners. Where a name states a change or a piece, a line headed by the entry shows the natural chain unless it says otherwise.
UniProt O43542: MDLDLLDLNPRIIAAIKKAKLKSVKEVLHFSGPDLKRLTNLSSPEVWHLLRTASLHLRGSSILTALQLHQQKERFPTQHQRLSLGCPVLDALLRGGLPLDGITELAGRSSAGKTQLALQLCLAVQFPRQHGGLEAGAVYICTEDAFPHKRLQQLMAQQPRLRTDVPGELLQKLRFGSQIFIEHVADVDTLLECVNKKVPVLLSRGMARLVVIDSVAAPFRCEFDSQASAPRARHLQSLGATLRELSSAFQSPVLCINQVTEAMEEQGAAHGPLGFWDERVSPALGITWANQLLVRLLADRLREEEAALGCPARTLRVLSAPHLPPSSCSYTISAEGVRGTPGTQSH
UniProt Q5T4F4: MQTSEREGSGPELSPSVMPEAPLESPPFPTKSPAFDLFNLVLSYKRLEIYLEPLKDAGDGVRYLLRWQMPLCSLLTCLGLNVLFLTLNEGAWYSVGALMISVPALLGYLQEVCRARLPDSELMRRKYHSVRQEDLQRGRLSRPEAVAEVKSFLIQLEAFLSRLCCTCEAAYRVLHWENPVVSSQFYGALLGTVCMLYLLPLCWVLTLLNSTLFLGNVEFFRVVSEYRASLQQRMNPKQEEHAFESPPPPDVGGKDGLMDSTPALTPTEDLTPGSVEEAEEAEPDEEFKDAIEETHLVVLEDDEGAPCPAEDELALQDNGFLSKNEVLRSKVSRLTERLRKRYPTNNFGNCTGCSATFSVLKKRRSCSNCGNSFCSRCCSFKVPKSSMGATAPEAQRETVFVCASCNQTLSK
UniProt Q9Y4E6, whole entry: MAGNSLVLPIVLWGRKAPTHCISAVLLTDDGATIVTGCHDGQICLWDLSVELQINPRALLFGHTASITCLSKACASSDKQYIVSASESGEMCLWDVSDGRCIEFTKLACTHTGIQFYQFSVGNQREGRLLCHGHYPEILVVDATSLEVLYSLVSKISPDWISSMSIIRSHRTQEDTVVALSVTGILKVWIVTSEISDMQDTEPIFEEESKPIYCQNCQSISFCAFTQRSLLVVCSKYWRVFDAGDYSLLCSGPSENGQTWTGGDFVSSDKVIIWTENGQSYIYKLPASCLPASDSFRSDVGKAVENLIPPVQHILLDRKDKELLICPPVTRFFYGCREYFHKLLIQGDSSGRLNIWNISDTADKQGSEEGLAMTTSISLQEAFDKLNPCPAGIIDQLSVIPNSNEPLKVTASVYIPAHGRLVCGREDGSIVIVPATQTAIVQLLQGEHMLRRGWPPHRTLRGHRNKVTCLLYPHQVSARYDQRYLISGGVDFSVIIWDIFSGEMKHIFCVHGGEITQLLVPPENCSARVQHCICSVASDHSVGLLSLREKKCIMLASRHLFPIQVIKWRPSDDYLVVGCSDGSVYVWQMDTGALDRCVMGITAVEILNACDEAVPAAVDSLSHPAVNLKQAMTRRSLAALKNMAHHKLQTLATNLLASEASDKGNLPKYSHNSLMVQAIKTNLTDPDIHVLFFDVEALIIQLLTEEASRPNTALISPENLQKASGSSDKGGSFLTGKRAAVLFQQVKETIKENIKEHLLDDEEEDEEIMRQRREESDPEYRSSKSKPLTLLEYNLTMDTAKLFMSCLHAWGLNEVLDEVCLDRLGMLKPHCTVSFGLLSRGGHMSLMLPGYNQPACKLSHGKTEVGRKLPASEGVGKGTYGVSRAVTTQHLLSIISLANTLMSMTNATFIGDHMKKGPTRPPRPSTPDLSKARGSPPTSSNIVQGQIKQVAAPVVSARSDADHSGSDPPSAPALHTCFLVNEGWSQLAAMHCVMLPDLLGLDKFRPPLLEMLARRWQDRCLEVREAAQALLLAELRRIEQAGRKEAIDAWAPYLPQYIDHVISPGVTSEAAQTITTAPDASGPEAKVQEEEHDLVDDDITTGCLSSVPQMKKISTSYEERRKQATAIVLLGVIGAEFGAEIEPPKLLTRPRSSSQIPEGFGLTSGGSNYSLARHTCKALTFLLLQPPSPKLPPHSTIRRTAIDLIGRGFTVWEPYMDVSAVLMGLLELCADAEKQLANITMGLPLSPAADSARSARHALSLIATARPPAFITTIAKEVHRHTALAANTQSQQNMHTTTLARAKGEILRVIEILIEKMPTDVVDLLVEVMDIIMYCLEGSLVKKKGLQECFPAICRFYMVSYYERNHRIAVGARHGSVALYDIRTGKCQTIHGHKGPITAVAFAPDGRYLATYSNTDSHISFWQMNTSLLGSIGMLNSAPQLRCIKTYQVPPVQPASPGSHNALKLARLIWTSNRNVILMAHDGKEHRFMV
UniProt P12956: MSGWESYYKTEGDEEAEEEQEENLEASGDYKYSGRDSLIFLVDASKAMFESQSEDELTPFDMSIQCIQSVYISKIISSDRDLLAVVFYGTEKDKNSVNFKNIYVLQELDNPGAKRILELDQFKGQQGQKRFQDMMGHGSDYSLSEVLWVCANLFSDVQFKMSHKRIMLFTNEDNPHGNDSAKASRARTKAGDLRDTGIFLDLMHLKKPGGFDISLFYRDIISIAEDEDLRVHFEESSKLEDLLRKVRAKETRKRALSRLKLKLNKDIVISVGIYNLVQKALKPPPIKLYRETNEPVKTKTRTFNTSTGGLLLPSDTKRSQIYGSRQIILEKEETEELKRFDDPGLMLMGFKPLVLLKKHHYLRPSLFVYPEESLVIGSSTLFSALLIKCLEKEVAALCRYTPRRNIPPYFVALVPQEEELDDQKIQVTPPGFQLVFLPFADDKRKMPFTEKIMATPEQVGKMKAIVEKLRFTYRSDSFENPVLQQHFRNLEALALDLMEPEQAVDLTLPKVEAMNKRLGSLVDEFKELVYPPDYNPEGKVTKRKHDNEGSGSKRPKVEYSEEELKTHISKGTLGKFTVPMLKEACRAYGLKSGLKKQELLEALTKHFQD
UniProt Q96NC0: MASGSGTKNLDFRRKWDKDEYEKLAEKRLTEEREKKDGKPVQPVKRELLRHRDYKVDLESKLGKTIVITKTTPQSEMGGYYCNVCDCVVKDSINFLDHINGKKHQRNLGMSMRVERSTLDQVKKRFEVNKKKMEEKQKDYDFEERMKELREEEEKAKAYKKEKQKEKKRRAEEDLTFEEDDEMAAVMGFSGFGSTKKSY
UniProt Q8IWR0: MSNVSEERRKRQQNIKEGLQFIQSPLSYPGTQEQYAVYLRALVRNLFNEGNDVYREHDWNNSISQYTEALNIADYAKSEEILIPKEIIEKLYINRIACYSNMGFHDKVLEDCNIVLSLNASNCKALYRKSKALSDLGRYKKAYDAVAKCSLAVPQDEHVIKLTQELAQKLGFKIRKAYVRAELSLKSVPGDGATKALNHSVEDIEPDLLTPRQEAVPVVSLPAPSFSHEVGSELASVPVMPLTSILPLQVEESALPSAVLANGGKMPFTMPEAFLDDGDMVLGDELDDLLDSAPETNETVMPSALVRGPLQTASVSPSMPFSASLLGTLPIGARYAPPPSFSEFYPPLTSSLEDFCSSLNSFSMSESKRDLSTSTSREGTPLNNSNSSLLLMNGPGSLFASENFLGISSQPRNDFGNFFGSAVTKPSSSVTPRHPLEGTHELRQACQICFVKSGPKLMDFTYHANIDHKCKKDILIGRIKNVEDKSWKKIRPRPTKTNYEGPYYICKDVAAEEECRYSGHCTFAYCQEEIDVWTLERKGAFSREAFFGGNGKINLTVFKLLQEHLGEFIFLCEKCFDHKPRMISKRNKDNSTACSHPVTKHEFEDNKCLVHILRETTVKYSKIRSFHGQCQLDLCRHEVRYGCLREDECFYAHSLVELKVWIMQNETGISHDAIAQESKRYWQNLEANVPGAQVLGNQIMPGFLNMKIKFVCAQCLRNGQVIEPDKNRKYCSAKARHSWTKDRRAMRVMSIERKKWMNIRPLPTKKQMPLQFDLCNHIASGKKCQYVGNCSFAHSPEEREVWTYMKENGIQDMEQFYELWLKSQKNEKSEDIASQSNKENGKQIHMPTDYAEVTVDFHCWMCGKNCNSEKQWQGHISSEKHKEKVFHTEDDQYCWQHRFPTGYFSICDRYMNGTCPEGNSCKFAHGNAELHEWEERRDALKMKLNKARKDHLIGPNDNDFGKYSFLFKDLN
UniProt P50552: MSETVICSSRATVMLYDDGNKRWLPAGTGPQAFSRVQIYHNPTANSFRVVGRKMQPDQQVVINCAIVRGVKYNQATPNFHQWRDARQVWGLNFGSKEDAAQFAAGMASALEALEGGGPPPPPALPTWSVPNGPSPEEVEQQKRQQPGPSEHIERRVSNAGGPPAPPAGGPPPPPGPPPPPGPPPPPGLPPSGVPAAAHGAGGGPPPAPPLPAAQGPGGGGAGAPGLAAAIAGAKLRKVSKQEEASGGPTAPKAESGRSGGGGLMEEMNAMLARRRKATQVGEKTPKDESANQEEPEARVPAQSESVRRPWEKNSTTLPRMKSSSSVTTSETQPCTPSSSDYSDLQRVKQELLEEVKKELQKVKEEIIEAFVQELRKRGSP
UniProt O43167: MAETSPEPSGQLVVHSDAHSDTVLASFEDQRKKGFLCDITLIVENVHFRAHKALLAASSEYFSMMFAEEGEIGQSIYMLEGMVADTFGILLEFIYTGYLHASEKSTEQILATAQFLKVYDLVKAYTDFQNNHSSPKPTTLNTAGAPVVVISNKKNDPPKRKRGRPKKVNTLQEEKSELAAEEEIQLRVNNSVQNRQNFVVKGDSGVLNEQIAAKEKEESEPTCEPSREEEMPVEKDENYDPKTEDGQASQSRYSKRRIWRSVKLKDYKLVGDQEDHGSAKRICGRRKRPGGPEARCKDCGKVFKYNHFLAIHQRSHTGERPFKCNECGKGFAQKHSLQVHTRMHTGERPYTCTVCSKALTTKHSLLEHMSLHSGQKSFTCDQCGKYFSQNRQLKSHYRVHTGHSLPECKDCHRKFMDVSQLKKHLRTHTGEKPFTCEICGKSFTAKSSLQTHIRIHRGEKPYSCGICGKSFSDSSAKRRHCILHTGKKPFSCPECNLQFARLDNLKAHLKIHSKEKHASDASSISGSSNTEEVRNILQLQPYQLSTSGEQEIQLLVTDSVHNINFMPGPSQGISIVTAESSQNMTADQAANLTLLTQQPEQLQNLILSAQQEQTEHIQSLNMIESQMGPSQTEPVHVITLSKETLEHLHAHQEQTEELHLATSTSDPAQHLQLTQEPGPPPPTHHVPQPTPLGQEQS
UniProt Q9H6S0: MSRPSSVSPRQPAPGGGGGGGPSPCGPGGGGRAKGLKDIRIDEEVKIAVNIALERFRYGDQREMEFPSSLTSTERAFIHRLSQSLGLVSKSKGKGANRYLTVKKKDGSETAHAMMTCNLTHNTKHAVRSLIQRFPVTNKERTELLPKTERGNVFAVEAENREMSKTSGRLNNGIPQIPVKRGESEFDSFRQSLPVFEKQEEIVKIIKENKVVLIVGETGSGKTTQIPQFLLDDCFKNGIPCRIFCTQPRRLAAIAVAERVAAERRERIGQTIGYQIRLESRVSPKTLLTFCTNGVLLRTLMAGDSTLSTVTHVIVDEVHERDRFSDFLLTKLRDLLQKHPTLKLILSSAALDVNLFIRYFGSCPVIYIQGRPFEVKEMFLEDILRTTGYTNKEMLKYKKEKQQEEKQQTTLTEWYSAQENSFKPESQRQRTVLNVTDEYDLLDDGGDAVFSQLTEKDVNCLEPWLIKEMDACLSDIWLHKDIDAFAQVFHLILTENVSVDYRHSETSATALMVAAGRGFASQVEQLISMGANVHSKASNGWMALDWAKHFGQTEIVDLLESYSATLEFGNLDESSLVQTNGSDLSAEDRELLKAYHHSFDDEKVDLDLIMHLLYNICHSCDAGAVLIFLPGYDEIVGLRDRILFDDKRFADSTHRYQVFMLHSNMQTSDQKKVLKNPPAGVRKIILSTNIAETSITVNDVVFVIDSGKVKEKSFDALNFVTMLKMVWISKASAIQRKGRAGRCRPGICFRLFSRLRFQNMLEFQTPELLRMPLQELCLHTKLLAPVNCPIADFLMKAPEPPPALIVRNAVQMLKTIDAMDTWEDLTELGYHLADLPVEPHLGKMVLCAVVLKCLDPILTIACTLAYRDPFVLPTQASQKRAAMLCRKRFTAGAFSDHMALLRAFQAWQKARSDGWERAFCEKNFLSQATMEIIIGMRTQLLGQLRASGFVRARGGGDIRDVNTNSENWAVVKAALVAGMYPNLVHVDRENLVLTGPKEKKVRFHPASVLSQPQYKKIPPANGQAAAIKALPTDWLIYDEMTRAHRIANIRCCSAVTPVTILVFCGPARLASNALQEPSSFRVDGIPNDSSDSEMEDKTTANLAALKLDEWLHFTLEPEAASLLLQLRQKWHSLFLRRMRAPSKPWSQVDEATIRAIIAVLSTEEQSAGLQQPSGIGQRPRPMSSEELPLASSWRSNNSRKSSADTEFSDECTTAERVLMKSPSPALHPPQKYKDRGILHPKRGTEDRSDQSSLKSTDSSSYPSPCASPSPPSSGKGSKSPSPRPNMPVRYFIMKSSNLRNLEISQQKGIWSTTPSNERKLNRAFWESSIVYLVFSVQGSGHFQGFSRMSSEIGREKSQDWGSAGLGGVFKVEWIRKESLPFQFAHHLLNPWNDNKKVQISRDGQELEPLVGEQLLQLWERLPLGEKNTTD

What follows are targets tested with COc1ccc(Cn2ccc3ccc(C(=O)NO)cc32)cc1 (assay: dose-dependent thermal stabilisation call (2D-TPP, DLPTP, 10% FDR) (binary (1 = stabilised)); higher = stabilised by the compound). Settings: system: HL-60 intact cells; concentration range 0.04-10 µM.

Target | dose-dependent thermal stabilisation call
WNK1 (UniProt Q9H4A3) | inactive: 0
XRCC3 (UniProt O43542) | inactive: 0
YARS2 (UniProt Q9Y2Z4) | inactive: 0
ZFYVE27 (UniProt Q5T4F4) | inactive: 0
VRK3 (UniProt Q8IV63) | inactive: 0
VDAC2 (UniProt P45880) | inactive: 0
YIPF4 (UniProt Q9BSR8) | inactive: 0
WDR7 (UniProt Q9Y4E6) | inactive: 0
WDR59 (UniProt Q6PJI9) | inactive: 0
WDR12 (UniProt Q9GZL7) | inactive: 0
VCPIP1 (UniProt Q96JH7) | inactive: 0
ZFR (UniProt Q96KR1) | inactive: 0
UTP14A (UniProt Q9BVJ6) | inactive: 0
VPRBP (UniProt Q9Y4B6) | inactive: 0
WDR34 (UniProt Q96EX3) | inactive: 0
WDR46 (UniProt O15213) | inactive: 0
WBP4 (UniProt O75554) | inactive: 0
XRCC6 (UniProt P12956) | inactive: 0
ZCCHC6 (UniProt Q5VYS8) | inactive: 0

Target | dose-dependent thermal stabilisation call
ZMAT2 (UniProt Q96NC0) | inactive: 0
WDR91 (UniProt A4D1P6) | inactive: 0
VPS33B (UniProt Q9H267) | inactive: 0
ZC3H7A (UniProt Q8IWR0) | inactive: 0
VASP (UniProt P50552) | inactive: 0
WDR4 (UniProt P57081) | inactive: 0
YWHAE (UniProt P62258) | inactive: 0
ZDHHC20 (UniProt Q5W0Z9) | inactive: 0
WDR47 (UniProt O94967) | inactive: 0
VPS39 (UniProt Q96JC1) | inactive: 0
WDR40A (UniProt Q5T6F0) | inactive: 0
ZCCHC3 (UniProt Q9NUD5) | inactive: 0
ZFAND3 (UniProt Q9H8U3) | inactive: 0
ZFYVE16 (UniProt Q7Z3T8) | inactive: 0
ZBTB24 (UniProt O43167) | inactive: 0
YTHDC2 (UniProt Q9H6S0) | inactive: 0
VRK2 (UniProt Q86Y07) | inactive: 0
ZMIZ2 (UniProt Q8NF64) | inactive: 0
ZBTB2 (UniProt Q8N680) | inactive: 0

A second format for part of the listing above.

| Target | dose-dependent thermal stabilisation call |
| --- | --- |
| WDR4 (UniProt P57081) | inactive: 0 |
| YWHAE (UniProt P62258) | inactive: 0 |
| ZDHHC20 (UniProt Q5W0Z9) | inactive: 0 |
| WDR47 (UniProt O94967) | inactive: 0 |
| VPS39 (UniProt Q96JC1) | inactive: 0 |
| WDR40A (UniProt Q5T6F0) | inactive: 0 |
| ZCCHC3 (UniProt Q9NUD5) | inactive: 0 |
| ZFAND3 (UniProt Q9H8U3) | inactive: 0 |
| ZFYVE16 (UniProt Q7Z3T8) | inactive: 0 |
| ZBTB24 (UniProt O43167) | inactive: 0 |
